Laboratory results from patent US20210163582A1.
Residue numbers refer to the chain shown, from its start. Results are given in words; binding and its absence hold for the method and conditions named. Some results given as binding are weak or reduced against the parent protein; the word gives no strength. Each block holds one binder with its values, some of them ahead of it.

Sequences of proteins named here, by UniProt entry; tags and fusion partners are left off. A change or cut given only in a name is not applied to a line headed by its entry. A line that says so, or that is headed by a name, gives the form on record, which may keep a tag or linker.
Tau species localized at the synapses of AD brains (P10636, form named): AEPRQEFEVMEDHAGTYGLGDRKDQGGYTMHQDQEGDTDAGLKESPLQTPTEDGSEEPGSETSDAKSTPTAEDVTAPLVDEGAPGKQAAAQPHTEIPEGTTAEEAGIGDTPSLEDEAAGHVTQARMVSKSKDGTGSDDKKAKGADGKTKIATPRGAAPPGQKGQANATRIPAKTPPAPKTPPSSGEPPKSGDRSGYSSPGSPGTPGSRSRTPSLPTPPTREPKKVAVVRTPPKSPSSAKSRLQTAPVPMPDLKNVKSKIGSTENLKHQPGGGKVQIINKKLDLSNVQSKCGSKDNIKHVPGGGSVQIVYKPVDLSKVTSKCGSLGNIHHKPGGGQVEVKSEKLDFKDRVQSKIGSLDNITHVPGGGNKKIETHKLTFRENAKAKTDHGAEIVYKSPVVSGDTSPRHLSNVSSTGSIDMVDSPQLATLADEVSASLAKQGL

Experiments:
[1] = target: Tau species in AD (Alzheimer's disease) brain lysate (human) (UniProt P10636); test: dot-blot of total brain lysates, non-denaturing
[2] = target: Tau species localized at the synapses of AD brains (human) (UniProt P10636); test: dot-blot of cytosol and synaptoneurosome fractions, non-denaturing
[3] = target: Tau species localized at the synapses of AD brains (human) (UniProt P10636); test: restated from the dot-blot of Example 4
[4] = target: Tau species in AD (Alzheimer's disease) brain lysate (human) (UniProt P10636); test: dot-blot of sucrose-gradient fractions of brain lysate, non-denaturing
[5] = target: Tau species in ND (non-demented) brain lysate (human) (UniProt P10636); test: western blot of ND brain lysate
[6] = target: Tau species in AD (Alzheimer's disease) brain lysate (human) (UniProt P10636); test: dot-blot of SEC fractions of brain lysates
[7] = target: Tau species in the sarkosyl-soluble fraction (S1) of AD brain lysate (human) (UniProt P10636); test: western blot of sarkosyl fractions of AD brain lysate
[8] = target: Tau species in the sarkosyl-insoluble fraction (P2) of AD brain lysate (human) (UniProt P10636); test: as above
[9] = target: Tau species in AD (Alzheimer's disease) brain lysate (human) (UniProt P10636); test: western blot of AD brain lysate
[10] = target: Tau species in AD (Alzheimer's disease) brain lysate (human) (UniProt P10636); test: immunohistochemistry of human brain slices
[11] = target: Tau species in ND (non-demented) brain lysate (human) (UniProt P10636); test: immunohistochemistry of human brain slices
[12] = target: Tau species in PSP (progressive supranuclear palsy) brain (human) (UniProt P10636); test: immunohistochemistry of PSP brain slices

- binding [1]: binds
B2: mAb004 (antibody, V domains shown)
VH: EVQLVESGGDLVESGGSLKLSCAASGFTFSSYGMSWVRQTPDKRLEWVATISSSGSYTYYPDSVKGRFTISRDNAKNTLYLQMSSLNSEDTAMYYCADTYYGAMDYWGQGTSVTVSS
VL: DVLMTQTPLSLPVSLGDQASISCRSSQTIVHSNGNTYLEWYLQKPGQSPKLLIYKVSNRFSGVPDRFSGSGSGTDFTLKISRVEAEDLGVYYCFQGSLVPWTFGGGTQLEIR

- binding [1]: binds
- binding [2]: binds
- binding [3]: binds
B5: mAb008 (antibody, V domains shown)
VH: EVKLLQSGGGLVQPGGSLKVSCAASGFDFSRYWMSWVRRAPGKGLEWIGEINPDGNAINYAPSLKDKFIVSRDNAKNTLYLQMSNVRSEDTALYYCARPFPSVWGTGTTVTVSS
VL: B2 VL with T28S, I29L, H31R, K44N, L98H, W101Y, Q108K, R112K

- binding [1]: binds
- binding [2]: binds
- binding [3]: binds
B6: mAb032 (antibody, V domains shown)
VH: QVQLQQSGAELVKPGASVKISCKASGYAFSSYWMNWVKQRPGKGLEWIGQIYPGDGDTDYNGKFKGKATLTADTSSSTAYMQLSSLTSEDSAVYFCASRSPYWGQGTLVTVSA
VL: B2 VL with V2I, T28S, L98H, W101Y, Q108K, R112K

The next lines start with the binder.

B1: mAb025 (antibody, V domains shown)
VH: QIQLVQSGPELKKPGETVKISCKASGYTFTTHGMSWVKQAPGKGLKWMGWINTYSGVPTYTDDFKGRFAFSLETSASTAYLQINNLKNEDTATYFCARSELSWFAYWGQGTLVTVSA
VL: DIVMTQSPATLSVTPGDRVSLSCRASQSISDYLHWYQQKSHESPRLLIKYASQSISGIPSRFSGSGSGSDFTLSINSVEPEDVGVYYCQNGHSFPYTFGGGTKLEIK
- binding [1]: binds
- binding [2]: binds
- binding [3]: binds

B3: mAb033 (antibody, V domains shown)
VH: QVTLKESGPGILQPSQTLSLTCSFSGFSLSTFGMGVGWFRQPSGKGLEWLAHIWWDDDKYYNPALKSRLTISKDTSKNQVFLKIANVDTADTATYYCARRGSNALDYWGQGTSVTVSS
VL: DVVVTQTPLSLPVSFGDQVSISCRSSQSLANSYGNTYLSWYLHKPGQSPQLLIYGISNRFSGVPDRFSGSGSGTDFTLKISTIKPEDLGMYYCLQGTHQPWTFGGGTKLEIK
- binding [1]: binds

B4: mAb005 (antibody, V domains shown)
VH: EVQLVESGGGLVKPGGSLKLSCAASGFTFSDYGMHWVRQAPEKGLEWVAYSNSDSTTIYYADTVKGRFTISRDNAKSTLFLQMTSLRSEDTAMYYCGRSYYSNYVDYWGQGTTLTVSS
VL: DIVMTQIPLSLPVSLGDQASISCRSSQSLVHSNGNTYLHWYLQKPGQSPKLLIYKVSNRFSGVPDRFSGSGSGTDFTLKISRVEAEDLGVYFCFQSTHVPPTFGGGTKLEIK
- binding [1]: binds
- binding [4]: binds
- binding [5]: binds
- binding [2]: binds
- binding [6]: binds
- binding [7]: binds
- binding [8]: binds
- binding [9]: binds
- binding [3]: binds
- binding [10]: binds
- binding [11]: binds
- binding [12]: binds
